Results reported in paper PMC9855889.
Results are given in words; binding and its absence hold for the method and conditions named. Tags and fused reporters may be left off the sequences shown.

Protein sequences, listed by entry. Tags and fused reporters are not part of them. Lines headed by an entry give the natural chain unless they say otherwise; changes in a name come on top.
UniProt P32589: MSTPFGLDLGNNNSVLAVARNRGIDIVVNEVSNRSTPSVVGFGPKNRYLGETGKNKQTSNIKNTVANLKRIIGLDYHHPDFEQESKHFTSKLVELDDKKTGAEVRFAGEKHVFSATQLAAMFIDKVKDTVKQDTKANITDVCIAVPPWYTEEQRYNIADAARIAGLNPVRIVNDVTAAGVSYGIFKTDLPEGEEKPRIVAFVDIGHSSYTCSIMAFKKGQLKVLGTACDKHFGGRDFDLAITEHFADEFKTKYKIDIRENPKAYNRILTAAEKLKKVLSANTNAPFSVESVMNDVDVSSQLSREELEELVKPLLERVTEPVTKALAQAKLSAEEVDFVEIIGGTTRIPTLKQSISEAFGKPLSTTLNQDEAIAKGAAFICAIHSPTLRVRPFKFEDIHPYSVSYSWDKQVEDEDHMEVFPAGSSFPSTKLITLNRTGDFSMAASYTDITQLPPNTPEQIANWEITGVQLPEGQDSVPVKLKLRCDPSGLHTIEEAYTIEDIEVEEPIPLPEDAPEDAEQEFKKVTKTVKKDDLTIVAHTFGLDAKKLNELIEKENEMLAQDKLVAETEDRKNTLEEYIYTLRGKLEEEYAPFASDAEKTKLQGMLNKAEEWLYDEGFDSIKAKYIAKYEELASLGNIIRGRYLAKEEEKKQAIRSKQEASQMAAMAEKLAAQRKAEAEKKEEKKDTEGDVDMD

Target: T1, α4-HA (Pre6-HA) (S. cerevisiae) (UniProt P40303)
T1 sequence: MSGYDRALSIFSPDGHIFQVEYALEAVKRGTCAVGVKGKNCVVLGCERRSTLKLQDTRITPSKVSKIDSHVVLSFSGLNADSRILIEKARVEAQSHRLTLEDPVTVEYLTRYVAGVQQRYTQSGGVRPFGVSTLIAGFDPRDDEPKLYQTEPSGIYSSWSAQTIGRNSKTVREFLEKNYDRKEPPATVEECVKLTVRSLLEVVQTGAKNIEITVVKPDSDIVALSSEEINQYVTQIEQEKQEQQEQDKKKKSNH
Assay: native gel or EMSA; crude yeast extracts in 26S buffer (2 mM ATP), 4-15% native PAGE, anti-HA blot of the HA-tagged α subunit; +C bands compared in WT, sse1∆, sse1-G205D and ssa mutant strains; ATP or ADP (1 or 2 mM) added to ATP-free extracts restored the +C bands

For Sse1-G205D (from UniProt P32589), the binding was “no binding”.
